From the supplement of paper PMC12819154, “High-throughput peptide-centric local stability assay extends protein–ligand identification to membrane proteins, tissues and bacteria” (Nature Structural & Molecular Biology, 2025) come the findings set out here.

Chains of the proteins cited; added tags and fusions are not shown. Lines headed by an entry give the natural chain unless they say otherwise; changes in a name come on top.
UniProt Q5HZI9: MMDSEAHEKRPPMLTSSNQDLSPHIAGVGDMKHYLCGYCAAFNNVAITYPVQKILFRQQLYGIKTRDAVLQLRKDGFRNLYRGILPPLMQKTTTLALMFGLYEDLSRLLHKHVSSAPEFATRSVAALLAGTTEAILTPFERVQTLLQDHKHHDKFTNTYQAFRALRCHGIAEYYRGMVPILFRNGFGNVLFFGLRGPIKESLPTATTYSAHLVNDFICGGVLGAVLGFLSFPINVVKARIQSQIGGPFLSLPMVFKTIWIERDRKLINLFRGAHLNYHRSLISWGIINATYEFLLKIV
UniProt Q60770: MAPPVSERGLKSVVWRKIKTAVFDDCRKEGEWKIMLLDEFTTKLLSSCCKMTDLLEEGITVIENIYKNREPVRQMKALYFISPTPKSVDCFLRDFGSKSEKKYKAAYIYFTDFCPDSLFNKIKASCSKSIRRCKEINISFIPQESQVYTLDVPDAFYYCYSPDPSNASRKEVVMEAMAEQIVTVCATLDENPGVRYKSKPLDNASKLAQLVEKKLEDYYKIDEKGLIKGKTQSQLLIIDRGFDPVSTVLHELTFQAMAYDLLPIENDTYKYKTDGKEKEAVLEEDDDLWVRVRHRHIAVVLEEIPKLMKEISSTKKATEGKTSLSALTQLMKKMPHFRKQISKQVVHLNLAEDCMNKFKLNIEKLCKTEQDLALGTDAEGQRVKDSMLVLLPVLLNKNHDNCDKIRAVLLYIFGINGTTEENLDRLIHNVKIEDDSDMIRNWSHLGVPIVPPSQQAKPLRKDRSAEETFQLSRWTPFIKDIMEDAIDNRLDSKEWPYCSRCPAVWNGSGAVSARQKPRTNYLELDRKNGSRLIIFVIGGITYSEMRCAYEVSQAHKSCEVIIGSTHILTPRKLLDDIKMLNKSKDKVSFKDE
UniProt Q5HZJ0: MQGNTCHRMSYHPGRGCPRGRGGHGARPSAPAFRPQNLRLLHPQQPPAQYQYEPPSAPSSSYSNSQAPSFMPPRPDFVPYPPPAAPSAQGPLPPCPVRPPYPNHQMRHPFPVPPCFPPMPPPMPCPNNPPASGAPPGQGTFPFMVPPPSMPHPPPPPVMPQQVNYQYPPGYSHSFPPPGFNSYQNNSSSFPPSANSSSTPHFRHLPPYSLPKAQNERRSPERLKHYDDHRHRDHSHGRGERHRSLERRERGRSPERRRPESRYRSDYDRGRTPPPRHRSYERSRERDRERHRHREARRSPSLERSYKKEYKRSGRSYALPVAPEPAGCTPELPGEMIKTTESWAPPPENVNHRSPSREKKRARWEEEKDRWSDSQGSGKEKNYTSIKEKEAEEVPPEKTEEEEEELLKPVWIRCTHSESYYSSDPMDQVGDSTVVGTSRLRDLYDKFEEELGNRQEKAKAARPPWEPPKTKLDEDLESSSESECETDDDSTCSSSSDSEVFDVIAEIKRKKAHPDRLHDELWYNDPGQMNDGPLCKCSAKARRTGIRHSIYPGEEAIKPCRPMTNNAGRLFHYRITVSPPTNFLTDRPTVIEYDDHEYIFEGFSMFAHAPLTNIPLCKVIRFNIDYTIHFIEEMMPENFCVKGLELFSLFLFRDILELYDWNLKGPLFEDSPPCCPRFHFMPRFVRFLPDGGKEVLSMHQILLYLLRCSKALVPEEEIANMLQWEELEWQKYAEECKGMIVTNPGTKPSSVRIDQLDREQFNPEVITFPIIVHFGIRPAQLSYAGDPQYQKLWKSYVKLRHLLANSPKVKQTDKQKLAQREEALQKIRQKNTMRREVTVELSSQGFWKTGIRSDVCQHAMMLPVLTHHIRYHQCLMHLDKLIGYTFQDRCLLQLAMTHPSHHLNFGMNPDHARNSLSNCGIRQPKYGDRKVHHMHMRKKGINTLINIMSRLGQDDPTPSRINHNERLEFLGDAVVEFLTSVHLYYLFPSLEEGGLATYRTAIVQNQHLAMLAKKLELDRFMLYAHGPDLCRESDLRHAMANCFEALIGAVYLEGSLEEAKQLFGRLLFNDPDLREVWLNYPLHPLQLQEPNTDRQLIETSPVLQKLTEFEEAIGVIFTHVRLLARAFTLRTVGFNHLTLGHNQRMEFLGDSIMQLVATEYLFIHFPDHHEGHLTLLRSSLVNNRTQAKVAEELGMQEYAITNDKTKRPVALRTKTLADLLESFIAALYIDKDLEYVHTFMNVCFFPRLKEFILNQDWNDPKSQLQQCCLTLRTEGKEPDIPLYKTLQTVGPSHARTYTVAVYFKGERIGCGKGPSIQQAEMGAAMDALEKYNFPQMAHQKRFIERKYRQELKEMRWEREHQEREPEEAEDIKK
UniProt Q60876: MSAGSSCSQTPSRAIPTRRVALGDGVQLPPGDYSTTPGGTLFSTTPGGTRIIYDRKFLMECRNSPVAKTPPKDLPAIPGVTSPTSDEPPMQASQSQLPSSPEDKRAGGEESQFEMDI

This is one part of the list. Most values lie at the level of the controls, where differences are scatter.

Compound in this assay: CN[C@@H]1C[C@H]2O[C@@](C)([C@@H]1OC)n1c3ccccc3c3c4c(c5c6ccccc6n2c5c31)C(=O)NC4 [staurosporine]
As to the kind of experiment: log2 fold change of tryptic peptide abundance, ligand vs vehicle (limited proteolysis) (log2 ratio); higher = more trypsin-susceptible (destabilized). The settings on record: ligand concentration: 20 uM; sample: mouse liver crude lysate; replicate design: treated separately.
Consider “UniProt Q5HZI9 (peptide sequence: MMDSEAHEK, peptide start residue: 1)”, for which the log2 fold change was -0.322. In the case of “UniProt Q60770 (peptide sequence: SAEETFQLSR, peptide start residue: 464)”, the log2 fold change is -0.295.

Turning to “UniProt Q5HZJ0 (peptide sequence: LGQDDPTPSR, peptide start residue: 951)”, the log2 fold change came to 0.338. Under “UniProt Q60876 (peptide sequence: KFLMECR, peptide start residue: 56)” stands 0.0744.
